# According to article PMC4046817:
# Target: T1, Ss-LrpB (UniProt Q7LX67)
# T1 sequence (looked up, limits assumed): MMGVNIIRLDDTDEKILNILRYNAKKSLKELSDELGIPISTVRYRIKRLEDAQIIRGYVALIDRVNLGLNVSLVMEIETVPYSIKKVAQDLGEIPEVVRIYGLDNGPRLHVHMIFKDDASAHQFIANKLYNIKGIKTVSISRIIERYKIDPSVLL
# Experiment: EMSA
# Details: EMSA/footprinting in LrpB binding buffer (ref. 27), composition, pH and temperature not given, recombinant protein, label: 5'-32P, probe letters rebuilt from the primers and the genome
Sequence,binding result (none or only nonspecific),binding result
TCAGTAACTCCGATAAGTTGTTAAGGAAAGAGTTGGGCCTCTTGGATCTAACCTTTTTATCTTTAAGTGCAATGATAGGTTCTGGTTGGTTACTAGCTTCCTTAAGCGTGGCATCCATAGCGGGGCCATCTGGAATTTTATCTTGGATAATAGCTGGGATAATGGTAATGTTTATAGGGTTAGCTTATGCCGAACTTGGAAGTTCAATACCTAAAACTGGTGGTATAGTTAGATATCCAGTTTATTCCCACGGAAGTTACACTGGATTTGTCATAGCATTTCTATATCTTCTCTCGGCAATCTCTACACCTTCTATAGAAGCTTTAGCAACAATCGAATACTTAACTAATGTAAACCCTACTTTGAGTAAATTGCTTACTAACTCAACAGTTGTTAACGGCACACCAGTTACTATATTGACGCTTCCCGGATTACTGTTTTC (double strand) [Sso2043 fragment],no binding,–
TGAGCTCGTACAATAGTGATAATAAAGTTATCAGATACTTGACAGATTTAGGTAGGTCATGTGACTTCCAGGTTTAACATTTTGAAAGATCTAGTTTGTTTGAAGAAGGAGGAACAACATTTCCTCTCTGATTTCTTTACTTAACTCTTATTTTTGAAGAGGATATAAAAACCCAGAACATGACGTACGAGTTGTGTTAAAAATATTTTATGTTTATCTTCGTTTATCTACTTCGTTCCTTGATAAAAGAAAGGCTCTATAAATTCGATCTATTGTTATATATTTATTAATTTTAATAGTTTGATTTTAGGCTATTAAATATACTTGATACAATAAATTAGTATTCGATTCTATTTCCAGCCTAAGTAGCATTTACAATAATATAGTTCGAGTTTACTTCATCCTTATGGTGTAGCGATAGCTTTAAAATAGTTTGCTTCGATATTAACATGCGGA (double strand) [Sso1027 fragment],–,binds

# Construct, isoform or probe ends are uncertain for at least one entry. No signal at the amounts used counts as a negative. Tags and fusion partners may be left off the protein sequences shown.
